Results are given in words; binding and its absence hold for the method and conditions named. In cells and extracts the contact can be indirect. Here binding means that the protein was enriched with, or labelled near, the bait; the list need not be complete.
Biological target: OTU domain-containing protein 3 (OTUD3), endogenous (human (endogenous in KYSE180)) (UniProt Q5T2D3)
Assay: affinity purification with mass spectrometry; lysate (150 mM NaCl, 10 mM HEPES pH 7.4, 1% NP-40) precipitated with anti-OTUD3 antibody and protein G agarose overnight at 4 °C; SDS-PAGE, silver stain, MS; cell line not named

Amino acid sequences for entries named in this document (tags omitted).
UniProt Q5T2D3: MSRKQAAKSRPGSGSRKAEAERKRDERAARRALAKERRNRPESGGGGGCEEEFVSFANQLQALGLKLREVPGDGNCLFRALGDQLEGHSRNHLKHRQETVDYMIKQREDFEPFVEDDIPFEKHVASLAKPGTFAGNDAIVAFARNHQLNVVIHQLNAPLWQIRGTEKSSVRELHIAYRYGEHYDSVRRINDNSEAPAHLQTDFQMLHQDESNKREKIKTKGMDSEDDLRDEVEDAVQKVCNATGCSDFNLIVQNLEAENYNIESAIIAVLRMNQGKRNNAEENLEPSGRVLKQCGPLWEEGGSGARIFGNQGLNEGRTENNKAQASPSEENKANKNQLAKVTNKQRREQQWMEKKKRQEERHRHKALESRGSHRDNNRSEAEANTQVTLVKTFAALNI
UniProt O00571: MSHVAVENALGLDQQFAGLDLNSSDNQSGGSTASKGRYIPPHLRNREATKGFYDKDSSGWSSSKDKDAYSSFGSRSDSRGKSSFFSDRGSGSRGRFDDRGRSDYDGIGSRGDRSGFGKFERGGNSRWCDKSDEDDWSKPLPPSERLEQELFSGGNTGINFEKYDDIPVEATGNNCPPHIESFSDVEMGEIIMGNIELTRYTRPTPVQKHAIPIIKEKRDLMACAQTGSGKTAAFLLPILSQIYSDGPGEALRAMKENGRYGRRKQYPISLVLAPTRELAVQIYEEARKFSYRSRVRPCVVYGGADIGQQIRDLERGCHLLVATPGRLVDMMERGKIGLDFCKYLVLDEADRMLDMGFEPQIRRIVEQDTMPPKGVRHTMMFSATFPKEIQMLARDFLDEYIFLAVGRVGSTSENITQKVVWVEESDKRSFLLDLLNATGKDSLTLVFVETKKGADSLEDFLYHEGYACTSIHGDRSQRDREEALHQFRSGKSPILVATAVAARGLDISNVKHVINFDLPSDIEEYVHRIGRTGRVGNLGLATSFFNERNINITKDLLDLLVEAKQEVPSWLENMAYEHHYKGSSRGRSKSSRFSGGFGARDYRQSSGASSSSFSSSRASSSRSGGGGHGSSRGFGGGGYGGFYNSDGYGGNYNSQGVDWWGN

## DDX3X, endogenous (from UniProt O00571 1-662)
  binding: binds

From paper PMC8636640
